The results in this text go back to paper doi:10.1101/183848.

The target in this experiment is DEAD box helicase 6 (DDX6), endogenous feline (domestic cat (endogenous in G355-5)). Nature of the experiment: co-IP.

These are yes or no findings as the source states them, for the method shown. Binding seen in cells or lysates may run through a third protein.

B1: FIV CO-Gag MACA (domain or fragment, UniProt P16087 1-357)
chain: MGNGQGRDWKMAIKRCSNVAVGVGGKSKKFGEGNFRWAIRMANVSTGREPGDIPETLDQLRLVICDLQERREKFGSSKEIDMAIVTLKVFAVAGLLNMTVSTAAAAENMYSQMGLDTRPSMKEAGGKEEGPPQAYPIQTVNGVPQYVALDPKMVSIFMEKAREGLGGEEVQLWFTAFSANLTPTDMATLIMAAPGCAADKEILDESLKQLTAEYDRTHPPDAPRPLPYFTAAEIMGIGLTQEQQAEARFAPARMQCRAWYLEALGKLAAIKAKSPRAVQLRQGAKEDYSSFIDRLFAQIDQEQNTAEVKLYLKQSLSIANANADCKKAMSHLKPESTLEEKLRACQEIGSPGYKMQL
In the case of B1, the binding entry is on record as “no binding”.
